Reference: the supplement of paper PMC12873370
Values joined by “and” are separate entries in the source; they are usually repeats but may differ in a detail not shown here. Equal entries are not always repeated. Some of the results follow. Single values are uncertain, as repeats are few or missing.

Tests used:
[1] = tested on: MEPP (mouse ovarian epithelium Trp53/Pten KO); experiment: cell viability relative to untreated (fraction); higher = less growth inhibition; conditions: 5 µM; 3 days
[2] = tested on: PREPP (mouse prostate epithelium Trp53/Pten KO); experiment: as above; conditions: 5 µM; 3 days

| Structure (SMILES) | cell viability [1] | cell viability [2] |
| --- | --- | --- |
| O=C(/C=C/c1ccc(O)c(O)c1)c1ccc(O)cc1O | 1.09 | 0.894 |
| CCCCC/C=C\C/C=C\C/C=C\C/C=C\CCCC(=O)O | 1 | 0.703 |
| C/C1=C\CC[C@]23O[C@H]2[C@@H](OC3=O)c2c(C)coc2C1 | 1.35 | 0.929 |
| CC(C)=CCC[C@](C)(O[C@@H]1O[C@H](CO)[C@@H](O)[C@H](O)[C@H]1O)[C@H]1CC[C@]2(C)[C@@H]1[C@H](O)C[C@@H]1[C@@]3(C)CC[C@H](O)C(C)(C)[C@@H]3[C@@H](O[C@@H]3O[C@H](CO)[C@@H](O)[C@H](O)[C@H]3O)C[C@]12C | 1.23 | 1.06 |
| C=C1C(=O)O[C@@H]2/C=C(\C)CC/C=C(\C)CC[C@@H]12 | 1.24 | 0.875 |
| OCc1ccccc1 | 0.963 | 0.989 |
| OC[C@H]1O[C@H](OC[C@H]2O[C@H](O[C@]3(CO)O[C@H](CO)[C@@H](O)[C@@H]3O)[C@H](O)[C@@H](O)[C@@H]2O)[C@H](O)[C@@H](O)[C@H]1O | 1.05 | 0.868 |
| CC(C)(O)C(=O)O | 1.01 | 0.87 |
| NC(=O)C1=CN([C@@H]2O[C@H](COP(=O)(O)OP(=O)(O)OC[C@H]3O[C@@H](n4cnc5c(N)ncnc54)C(O)C3O)C(O)C2O)C=CC1 (some centres not stated) | 1.05 | 0.886 |
| CC(=O)N1C[C@H](O)C[C@H]1C(=O)O | 0.925 | 0.973 |
| O=c1ccn([C@@H]2O[C@H](COP(=O)(O)O)[C@@H](O)[C@H]2O)c(=O)[nH]1 | 0.914 | 0.969 |
| O=C(O)CC(O)C(=O)O (configuration not stated) | 1.27 and 0.948 | 0.655 and 0.941 |
| Nc1ccc(S(=O)(=O)Nc2ccccn2)cc1 | 1.11 | 0.878 |
| CCCCCCCC/C=C/CCCCCCCC(=O)O | 0.95 | 0.885 |
| C[N+](C)(C)CCOP(=O)([O-])OC[C@H](O)CO | 1.05 | 1.02 |
| C#C[C@]1(O)CC[C@H]2[C@@H]3CCC4=CC(=O)CC[C@@H]4[C@H]3CC[C@@]21CC | 0.886 | 0.965 |
| N[C@@H](Cc1ccc(O)c(Cl)c1)C(=O)O | 0.882 | 0.876 |
| OC1COC(O)CO1 (configuration not stated) | 0.955 | 0.888 |

| Structure (SMILES) | cell viability [1] | cell viability [2] |
| --- | --- | --- |
| NC[C@H]1O[C@H](O[C@H]2[C@H](O)[C@@H](O[C@H]3O[C@H](CO)[C@@H](O)[C@H](N)[C@H]3O)[C@H](N)C[C@@H]2N)[C@H](O)[C@@H](O)[C@@H]1O | 1.17 | 0.839 |
| CC[C@H](C)C(=O)O[C@H]1CCC=C2C=C[C@H](C)[C@H](CC[C@@H]3C[C@@H](O)CC(=O)O3)[C@H]21 | 1.03 | 0.672 |
| C[C@H](CCC(=O)O)[C@H]1CC[C@H]2[C@@H]3C[C@H](O)[C@@H]4C[C@H](O)CC[C@]4(C)[C@H]3CC[C@]12C | 0.956 | 0.93 |
| CC(=O)c1ccc(O)cc1O | 1.01 | 0.795 |
| C=C1C[C@@]23CC[C@H]4[C@@](C)(CCC[C@@]4(C)C(=O)O)[C@@H]2CC[C@]1(O[C@@H]1O[C@@H](CO)[C@@H](O)[C@H](O)[C@@H]1O[C@@H]1O[C@@H](CO)[C@@H](O)[C@H](O)[C@@H]1O)C3 | 0.787 | 0.838 |
| CC(C)[C@H](N)C(=O)OCCOCn1cnc2c(=O)nc(N)[nH]c21 | 0.809 | 0.908 |
| CC(=O)O[C@]1(C(C)=O)CC[C@H]2[C@@H]3C[C@H](C)C4=CC(=O)CC[C@]4(C)[C@H]3CC[C@@]21C | 1.02 | 0.928 |
| NC(=S)c1ccncc1 | 1.05 | 0.808 |
| CCCCCCCCCCCCCCCCO | 1.02 | 0.846 |
| C[N+](C)(C)CC(O)CC(=O)[O-] (configuration not stated) | 0.948 | 0.809 |
| CCC1C=C(C)CC(C)CC(OC)C2OC(O)(C(=O)C(=O)N3CCCCC3C(=O)OC(C(C)=CC3CCC(O)C(OC)C3)C(C)C(O)CC1=O)C(C)CC2OC (configuration not stated) | 1.06 | 0.951 |
| C[C@@H]1O[C@@H]1P(=O)(O)O | 1.07 | 0.886 |
| O=C(O)c1cc2ccccc2oc1=O | 1.03 | 0.966 |
| CN1CC[C@H](c2c(O)cc(O)c3c(=O)cc(-c4ccccc4Cl)oc23)[C@H](O)C1 | 0.621 and 0.613 | 0.716 and 0.677 |
| CC(=O)C(=O)O | 1.3 | 0.983 |
| COc1ccc(-c2coc3cc(O)cc(O)c3c2=O)cc1 | 1.25 | 0.953 |
| CC(=O)O[C@H]1C[C@@]2(C)[C@@H](C[C@@H](O)[C@H]3[C@@]4(C)CC[C@@H](O)[C@@H](C)[C@@H]4CC[C@@]32C)/C1=C(\CCC=C(C)C)C(=O)O | 1.04 | 0.907 |
| Cc1ccc(O)cc1 | 0.917 | 0.886 |

Complete entries, looked up by structure. Order of values: cell viability [1] | cell viability [2]
NC(=S)c1ccncc1 is entered as 1.05 | 0.808
CC(=O)c1ccc(O)cc1O is entered as 1.01 | 0.795
O=C(O)c1cc2ccccc2oc1=O is entered as 1.03 | 0.966
